In this test the target is cynomolgus monkey PD-1 antigen protein (Sino Biological, 90311-C08H) (cynomolgus monkey). Kind of test: SPR Biacore 8K. On the technique in general: SPR reads the build-up and loss of mass on a sensor chip optically.

The source of these data is EP4477673A1, “IMMUNOCONJUGATE AND USE THEREOF” (priority 2022, dated 2023).

These are yes or no findings as the source states them, for the method shown. Binding can be weak; no strength is given.

B1: A17m0902_hIgG4 (antibody, V domains shown)
VH: EVQLVESGGGLVQPGGSLRLSCAASGLTFSDYSMSWYRQAPGKGRELVAIISGSGVITHYVDSVKGRFTISRDNAKNTLYLQMRSLRAEDTAVYYCRAVSDWEDYWGQGTQVTVSS
notes: VHH-Fc antibody; not shown: human IgG4 Fc with hinge region and S228P (EU)
With B1, the binding entry was “binds”.
